Laboratory results: patent publication US20060257938A1, “Method of screening for drugs that block ligand binding to a lipid binding protein” (priority 2005, published 2006)

Assay: Baseline fluorescence ratio Ro of probe in absence of analyte
Settings: baseline fluorescence ratio of probe

Molecule	AvgOfRo (no fatty acid)	Ro	Ro (no fatty acid)
115V2, 72A (protein, listed as Rattus norvegicus, PEPTIDE (1)...(131) wild-type rat intestinal fatty acid binding protein) AFDGTWKVDRNENYEKFMEKMGINVVKRKLGAHDNLKLTITQEGNKFTVKESSNFRNIDVVFELGVDFAYSAADGTELTGTWTMEGNKLVGKFKRVDNGKELIAVREISGNELIVTYTYEGVEAKRIFKKE	0.28		
72G 73W 74E (protein, listed as Rattus norvegicus, PEPTIDE (1)...(131) wild-type rat intestinal fatty acid binding protein) AFDGTWKVDRNENYEKFMEKMGINVVKRKLGAHDNLKLTITQEGNKFTVKESSNFRNIDVVFELGVDFAYSGWEGTELTGTWTMEGNKLVGKFKRVDNGKELIAVREISGNELIQTYTYEGVEAKRIFKKE		0.576	
21F 78I 102F 72A (protein, listed as Rattus norvegicus, PEPTIDE (1)...(131) wild-type rat intestinal fatty acid binding protein) AFDGTWKVDRNENYEKFMEKFGINVVKRKLGAHDNLKLTITQEGNKFTVKESSNFRNIDVVFELGVDFAYSAADGTEITGTWTMEGNKLVGKFKRVDNGKEFIAVREISGNELIQTYTYEGVEAKRIFKKE		0.400	
72V 73L 74W (protein, listed as Rattus norvegicus, PEPTIDE (1)...(131) wild-type rat intestinal fatty acid binding protein) AFDGTWKVDRNENYEKFMEKMGINVVKRKLGAHDNLKLTITQEGNKFTVKESSNFRNIDVVFELGVDFAYSVLWGTELTGTWTMEGNKLVGKFKRVDNGKELIAVREISGNELIQTYTYEGVEAKRIFKKE		0.248	0.248
38Y 74F 72A (protein, listed as Rattus norvegicus, PEPTIDE (1)...(131) wild-type rat intestinal fatty acid binding protein) AFDGTWKVDRNENYEKFMEKMGINVVKRKLGAHDNLKYTITQEGNKFTVKESSNFRNIDVVFELGVDFAYSAAFGTELTGTWTMEGNKLVGKFKRVDNGKELIAVREISGNELIQTYTYEGVEAKRIFKKE		0.191	0.191
115Y1, 72A (protein, listed as Rattus norvegicus, PEPTIDE (1)...(131) wild-type rat intestinal fatty acid binding protein) AFDGTWKVDRNENYEKFMEKMGINVVKRKLGAHDNLKLTITQEGNKFTVKESSNFRNIDVVFELGVDFAYSAADGTELTGTWTMEGNKLVGKFKRVDNGKELIAVREISGNELIYTYTYEGVEAKRIFKKE	0.40		
72T 73W 74G (protein, listed as Rattus norvegicus, PEPTIDE (1)...(131) wild-type rat intestinal fatty acid binding protein) AFDGTWKVDRNENYEKFMEKMGINVVKRKLGAHDNLKLTITQEGNKFTVKESSNFRNIDVVFELGVDFAYSTWGGTELTGTWTMEGNKLVGKFKRVDNGKELIAVREISGNELIQTYTYEGVEAKRIFKKE		0.205	0.205
102C, 72A (protein, listed as Rattus norvegicus, PEPTIDE (1)...(131) wild-type rat intestinal fatty acid binding protein) AFDGTWKVDRNENYEKFMEKMGINVVKRKLGAHDNLKLTITQEGNKFTVKESSNFRNIDVVFELGVDFAYSAADGTELTGTWTMEGNKLVGKFKRVDNGKECIAVREISGNELIQTYTYEGVEAKRIFKKE	0.24		
117C, 72A (protein, listed as Rattus norvegicus, PEPTIDE (1)...(131) wild-type rat intestinal fatty acid binding protein) AFDGTWKVDRNENYEKFMEKMGINVVKRKLGAHDNLKLTITQEGNKFTVKESSNFRNIDVVFELGVDFAYSAADGTELTGTWTMEGNKLVGKFKRVDNGKELIAVREISGNELIQTCTYEGVEAKRIFKKE	0.25		
117D, 72A (protein, listed as Rattus norvegicus, PEPTIDE (1)...(131) wild-type rat intestinal fatty acid binding protein) AFDGTWKVDRNENYEKFMEKMGINVVKRKLGAHDNLKLTITQEGNKFTVKESSNFRNIDVVFELGVDFAYSAADGTELTGTWTMEGNKLVGKFKRVDNGKELIAVREISGNELIQTDTYEGVEAKRIFKKE	0.36		0.389
72A 73W 74E (protein, listed as Rattus norvegicus, PEPTIDE (1)...(131) wild-type rat intestinal fatty acid binding protein) AFDGTWKVDRNENYEKFMEKMGINVVKRKLGAHDNLKLTITQEGNKFTVKESSNFRNIDVVFELGVDFAYSAWEGTELTGTWTMEGNKLVGKFKRVDNGKELIAVREISGNELIQTYTYEGVEAKRIFKKE		0.503	
117A, 72A (protein, listed as Rattus norvegicus, PEPTIDE (1)...(131) wild-type rat intestinal fatty acid binding protein) AFDGTWKVDRNENYEKFMEKMGINVVKRKLGAHDNLKLTITQEGNKFTVKESSNFRNIDVVFELGVDFAYSAADGTELTGTWTMEGNKLVGKFKRVDNGKELIAVREISGNELIQTATYEGVEAKRIFKKE	0.28	0.270	0.270
73W 74I (protein, listed as Rattus norvegicus, PEPTIDE (1)...(131) wild-type rat intestinal fatty acid binding protein) AFDGTWKVDRNENYEKFMEKMGINVVKRKLGAHDNLKLTITQEGNKFTVKESSNFRNIDVVFELGVDFAYSLWIGTELTGTWTMEGNKLVGKFKRVDNGKELIAVREISGNELIQTYTYEGVEAKRIFKKE		0.335	0.335
72H 73P 74L (protein, listed as Rattus norvegicus, PEPTIDE (1)...(131) wild-type rat intestinal fatty acid binding protein) AFDGTWKVDRNENYEKFMEKMGINVVKRKLGAHDNLKLTITQEGNKFTVKESSNFRNIDVVFELGVDFAYSHPLGTELTGTWTMEGNKLVGKFKRVDNGKELIAVREISGNELIQTYTYEGVEAKRIFKKE		0.933	
60T 104T 115W 74F 72A (protein, listed as Rattus norvegicus, PEPTIDE (1)...(131) wild-type rat intestinal fatty acid binding protein) AFDGTWKVDRNENYEKFMEKMGINVVKRKLGAHDNLKLTITQEGNKFTVKESSNFRNIDTVFELGVDFAYSAAFGTELTGTWTMEGNKLVGKFKRVDNGKELITVREISGNELIWTYTYEGVEAKRIFKKE		0.136	
73W 74T (protein, listed as Rattus norvegicus, PEPTIDE (1)...(131) wild-type rat intestinal fatty acid binding protein) AFDGTWKVDRNENYEKFMEKMGINVVKRKLGAHDNLKLTITQEGNKFTVKESSNFRNIDVVFELGVDFAYSLWTGTELTGTWTMEGNKLVGKFKRVDNGKELIAVREISGNELIQTYTYEGVEAKRIFKKE		0.368	0.368
